For one data set, the system named is Aptamer Ch-9.3t. The data set can be described thus: Isothermal titration calorimetry (Example V, Table 3). The class given is binding. The conditions noted are these: ITC, 298K, PBS.
In the next data set the test system is aptamer 9.3t. The experiment in a line: Isothermal titration calorimetry, two-sites binding model (Table 5). In general terms: In ITC the heat of successive injections is recorded.

For the compound `NCCCNCCCCNCCCN` [Spermine], in the data set on Aptamer Ch-9.3t, the TΔS entry was “+21.3 kJ mol^−1”, the ΔG was -5.38 kcal/mol and the ΔH is -0.282 kcal/mol. Also, in the data set on aptamer 9.3t (first stage binding), the TΔS worked out at 34.42 kJ mol^−1 K, the ΔG was -8.468 kcal/mol and the ΔH was -0.241 kcal/mol. In the data set with aptamer 9.3t (second stage binding), the TΔS came out at 28.80 kJ mol^−1 K, the ΔG is -6.955 kcal/mol and the ΔH is -0.0717 kcal/mol.

In the case of Protamine, in the data set on aptamer 9.3t (first stage binding), the TΔS was found to be 5.16 kJ mol^−1 K, the ΔG is -10.21 kcal/mol and the ΔH is -8.979 kcal/mol.

The record behind these values is patent US9901553B2, “Method of modulating the activity of a nucleic acid molecule” (DUKE UNIVERSITY, priority 2007, dated 2018).
